No constants are given. Whether binding was seen depends on the method and setting. A result given as binding can be weak or reduced; the word gives no strength.
Biological target: activated Protein C (APC) (human)
Assay: inhibition kinetics with heparin

- binding: binds
B1: A22 P2KP1′K PCI (protein)
chain: APSSRRDFTFDLYRALASAAPSQNIFFSPVSISMSLAMLSLGAGSSTKMQILEGLGLNLQKSSEKELHRGFQQLLQELNQPRDGFQLSLGNALFTDLVVDLQDTFVSAMKTLYLADTFPTNFRDSAGAMKQINDYVAKQTKGKIVDLLKNLDSNAVVIMVNYIFFKAKWETSFNHKGTQEQDFYVTSETVVRVPMMSREDQYHYLLDRNLSCRVVGVPYQGNATALFILPSEGKMQQVENGLSEKTLRKWLKMFKKRQLELYLPKFSIEGSYQLEKVLPSLGISNVFTSHADLSGISNHSNIQVSEMVHKAVVEVDESGTRAAAATGTIFTKRKARLNSQRLVFNRPFLMFIVDNNILFLGKVNRP
